From the supplement of paper PMC10849652
The other results are listed elsewhere or left out.

Chains of the proteins cited; added tags and fusions are not shown. Lines headed by an entry give the natural chain unless they say otherwise; changes in a name come on top.
UniProt Q58FG1, whole entry, looked up: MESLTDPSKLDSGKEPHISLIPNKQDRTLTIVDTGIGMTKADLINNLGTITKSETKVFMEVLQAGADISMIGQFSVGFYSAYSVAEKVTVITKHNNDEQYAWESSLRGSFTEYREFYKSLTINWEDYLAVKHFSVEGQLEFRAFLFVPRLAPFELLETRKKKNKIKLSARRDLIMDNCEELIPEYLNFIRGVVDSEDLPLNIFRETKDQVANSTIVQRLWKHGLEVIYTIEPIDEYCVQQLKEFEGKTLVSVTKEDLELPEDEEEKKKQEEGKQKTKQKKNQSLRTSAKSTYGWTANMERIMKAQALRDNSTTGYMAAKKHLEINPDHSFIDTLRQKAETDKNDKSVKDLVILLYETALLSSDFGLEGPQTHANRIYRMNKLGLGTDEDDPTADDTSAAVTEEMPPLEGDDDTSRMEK
UniProt Q58FF7, whole entry, looked up: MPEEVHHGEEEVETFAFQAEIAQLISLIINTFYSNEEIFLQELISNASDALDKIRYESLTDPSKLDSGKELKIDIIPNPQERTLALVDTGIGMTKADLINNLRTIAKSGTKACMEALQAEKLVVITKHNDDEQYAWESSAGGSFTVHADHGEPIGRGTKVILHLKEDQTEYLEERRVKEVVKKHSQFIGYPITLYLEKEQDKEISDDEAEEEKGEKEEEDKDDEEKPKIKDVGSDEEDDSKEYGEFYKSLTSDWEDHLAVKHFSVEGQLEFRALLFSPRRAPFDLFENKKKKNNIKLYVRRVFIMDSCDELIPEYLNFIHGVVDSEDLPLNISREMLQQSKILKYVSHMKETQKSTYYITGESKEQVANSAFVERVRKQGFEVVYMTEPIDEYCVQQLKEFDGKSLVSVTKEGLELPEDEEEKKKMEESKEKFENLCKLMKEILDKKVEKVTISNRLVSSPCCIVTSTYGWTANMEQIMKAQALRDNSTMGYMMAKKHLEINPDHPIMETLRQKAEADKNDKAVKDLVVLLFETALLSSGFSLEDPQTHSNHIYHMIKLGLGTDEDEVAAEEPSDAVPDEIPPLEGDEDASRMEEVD
UniProt Q58FF6, whole entry, looked up: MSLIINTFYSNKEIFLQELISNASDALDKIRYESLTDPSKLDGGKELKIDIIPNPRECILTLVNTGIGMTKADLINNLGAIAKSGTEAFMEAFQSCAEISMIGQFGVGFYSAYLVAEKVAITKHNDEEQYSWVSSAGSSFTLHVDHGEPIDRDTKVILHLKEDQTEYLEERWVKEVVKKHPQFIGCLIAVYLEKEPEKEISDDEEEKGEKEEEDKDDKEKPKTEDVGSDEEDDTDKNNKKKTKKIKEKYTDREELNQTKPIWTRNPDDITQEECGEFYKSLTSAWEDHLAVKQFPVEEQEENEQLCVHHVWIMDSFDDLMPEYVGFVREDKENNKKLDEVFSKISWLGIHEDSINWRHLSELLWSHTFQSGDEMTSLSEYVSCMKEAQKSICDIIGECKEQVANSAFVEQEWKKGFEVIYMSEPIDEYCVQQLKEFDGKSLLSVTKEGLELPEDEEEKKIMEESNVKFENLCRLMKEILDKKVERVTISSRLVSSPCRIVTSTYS
UniProt Q92506: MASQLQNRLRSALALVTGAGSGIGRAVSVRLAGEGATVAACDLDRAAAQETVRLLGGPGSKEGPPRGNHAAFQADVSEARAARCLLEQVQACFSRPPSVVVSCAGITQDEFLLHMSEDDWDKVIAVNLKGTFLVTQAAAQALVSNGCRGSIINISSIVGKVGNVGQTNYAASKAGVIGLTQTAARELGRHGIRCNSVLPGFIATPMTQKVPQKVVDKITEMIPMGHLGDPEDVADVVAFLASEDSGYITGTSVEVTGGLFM
UniProt O14979: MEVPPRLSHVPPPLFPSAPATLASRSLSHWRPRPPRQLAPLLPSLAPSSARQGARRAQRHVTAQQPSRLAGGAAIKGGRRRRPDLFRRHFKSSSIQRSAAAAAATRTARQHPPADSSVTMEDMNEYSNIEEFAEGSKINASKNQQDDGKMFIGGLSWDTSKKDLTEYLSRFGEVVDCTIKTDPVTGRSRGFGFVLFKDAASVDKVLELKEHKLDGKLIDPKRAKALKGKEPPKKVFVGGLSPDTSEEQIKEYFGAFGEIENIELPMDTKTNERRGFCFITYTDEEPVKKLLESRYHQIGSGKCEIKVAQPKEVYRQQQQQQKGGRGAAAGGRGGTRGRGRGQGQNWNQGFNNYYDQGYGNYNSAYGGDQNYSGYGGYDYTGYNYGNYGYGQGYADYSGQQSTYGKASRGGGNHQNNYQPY
UniProt Q53T59: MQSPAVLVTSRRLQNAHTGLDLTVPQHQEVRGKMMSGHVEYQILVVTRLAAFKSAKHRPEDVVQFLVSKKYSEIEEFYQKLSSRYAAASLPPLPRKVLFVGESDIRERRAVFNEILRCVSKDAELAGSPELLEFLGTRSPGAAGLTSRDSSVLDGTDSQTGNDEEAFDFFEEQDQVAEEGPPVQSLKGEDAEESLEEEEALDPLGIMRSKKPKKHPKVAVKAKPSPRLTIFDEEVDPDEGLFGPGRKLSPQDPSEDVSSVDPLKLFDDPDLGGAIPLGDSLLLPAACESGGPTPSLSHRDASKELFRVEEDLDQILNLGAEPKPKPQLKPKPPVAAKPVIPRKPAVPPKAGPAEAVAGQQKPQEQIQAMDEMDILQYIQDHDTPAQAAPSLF
UniProt Q9NWY4: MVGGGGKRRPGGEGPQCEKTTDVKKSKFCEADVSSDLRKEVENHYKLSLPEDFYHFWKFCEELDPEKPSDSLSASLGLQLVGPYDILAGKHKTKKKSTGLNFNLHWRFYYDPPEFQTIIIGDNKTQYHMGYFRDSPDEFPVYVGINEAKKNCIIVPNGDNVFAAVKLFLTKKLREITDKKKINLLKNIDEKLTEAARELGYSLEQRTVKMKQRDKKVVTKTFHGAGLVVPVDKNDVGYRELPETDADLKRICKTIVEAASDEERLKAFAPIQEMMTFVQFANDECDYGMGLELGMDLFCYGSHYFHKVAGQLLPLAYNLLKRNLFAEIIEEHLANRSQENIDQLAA
UniProt Q03014: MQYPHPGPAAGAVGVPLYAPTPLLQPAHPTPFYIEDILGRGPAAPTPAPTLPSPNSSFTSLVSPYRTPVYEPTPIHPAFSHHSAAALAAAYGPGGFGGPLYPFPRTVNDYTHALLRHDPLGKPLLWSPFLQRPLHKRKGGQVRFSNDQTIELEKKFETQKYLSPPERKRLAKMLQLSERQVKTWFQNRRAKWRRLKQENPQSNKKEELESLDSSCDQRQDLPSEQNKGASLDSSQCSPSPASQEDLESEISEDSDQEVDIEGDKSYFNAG
UniProt Q8NCD3, whole entry, looked up: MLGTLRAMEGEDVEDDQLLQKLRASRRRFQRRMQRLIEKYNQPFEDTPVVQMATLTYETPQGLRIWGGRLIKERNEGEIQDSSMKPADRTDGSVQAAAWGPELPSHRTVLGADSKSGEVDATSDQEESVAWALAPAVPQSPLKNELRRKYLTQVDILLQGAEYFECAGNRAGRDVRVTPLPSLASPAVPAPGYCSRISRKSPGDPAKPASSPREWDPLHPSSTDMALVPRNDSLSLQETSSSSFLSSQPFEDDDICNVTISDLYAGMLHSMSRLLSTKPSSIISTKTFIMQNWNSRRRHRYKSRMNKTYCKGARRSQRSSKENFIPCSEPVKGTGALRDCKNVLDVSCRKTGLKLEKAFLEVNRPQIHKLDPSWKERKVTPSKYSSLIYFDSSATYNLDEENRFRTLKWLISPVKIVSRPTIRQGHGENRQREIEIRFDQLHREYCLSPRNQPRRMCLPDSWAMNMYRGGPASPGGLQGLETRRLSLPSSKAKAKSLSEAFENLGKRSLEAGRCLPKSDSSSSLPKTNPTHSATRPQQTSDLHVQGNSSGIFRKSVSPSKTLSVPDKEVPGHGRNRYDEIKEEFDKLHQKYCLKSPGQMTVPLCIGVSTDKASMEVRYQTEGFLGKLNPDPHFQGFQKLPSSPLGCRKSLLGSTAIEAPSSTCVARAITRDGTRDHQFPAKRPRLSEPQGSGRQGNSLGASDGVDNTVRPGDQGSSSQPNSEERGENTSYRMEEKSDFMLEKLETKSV
UniProt Q8NBQ5: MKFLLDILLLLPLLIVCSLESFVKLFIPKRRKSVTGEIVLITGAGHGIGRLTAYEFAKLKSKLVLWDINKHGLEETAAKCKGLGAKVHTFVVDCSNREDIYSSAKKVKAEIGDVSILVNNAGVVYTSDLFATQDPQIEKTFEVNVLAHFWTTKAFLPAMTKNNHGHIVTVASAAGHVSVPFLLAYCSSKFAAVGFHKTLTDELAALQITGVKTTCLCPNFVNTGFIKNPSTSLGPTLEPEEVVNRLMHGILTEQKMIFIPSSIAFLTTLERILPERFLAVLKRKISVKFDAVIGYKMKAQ
UniProt P17482: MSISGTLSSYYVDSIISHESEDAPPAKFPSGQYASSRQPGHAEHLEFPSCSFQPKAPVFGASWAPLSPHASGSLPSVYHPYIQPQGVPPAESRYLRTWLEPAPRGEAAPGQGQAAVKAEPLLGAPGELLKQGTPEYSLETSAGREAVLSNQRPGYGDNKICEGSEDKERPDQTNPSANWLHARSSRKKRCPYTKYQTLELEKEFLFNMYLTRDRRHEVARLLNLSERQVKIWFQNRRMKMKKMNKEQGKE
UniProt Q01581: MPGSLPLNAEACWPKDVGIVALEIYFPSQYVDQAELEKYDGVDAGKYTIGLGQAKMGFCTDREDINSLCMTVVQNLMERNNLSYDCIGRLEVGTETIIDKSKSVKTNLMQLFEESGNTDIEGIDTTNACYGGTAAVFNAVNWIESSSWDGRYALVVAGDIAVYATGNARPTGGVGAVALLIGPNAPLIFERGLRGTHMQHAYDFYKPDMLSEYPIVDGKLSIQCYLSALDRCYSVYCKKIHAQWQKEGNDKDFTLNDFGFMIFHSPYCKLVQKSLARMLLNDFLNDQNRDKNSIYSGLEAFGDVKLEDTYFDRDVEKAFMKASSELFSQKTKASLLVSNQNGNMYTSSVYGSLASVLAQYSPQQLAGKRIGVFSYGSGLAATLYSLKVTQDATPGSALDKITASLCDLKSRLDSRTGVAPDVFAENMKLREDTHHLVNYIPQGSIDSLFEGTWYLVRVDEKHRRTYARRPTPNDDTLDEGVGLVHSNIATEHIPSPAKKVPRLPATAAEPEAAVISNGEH
UniProt O15347: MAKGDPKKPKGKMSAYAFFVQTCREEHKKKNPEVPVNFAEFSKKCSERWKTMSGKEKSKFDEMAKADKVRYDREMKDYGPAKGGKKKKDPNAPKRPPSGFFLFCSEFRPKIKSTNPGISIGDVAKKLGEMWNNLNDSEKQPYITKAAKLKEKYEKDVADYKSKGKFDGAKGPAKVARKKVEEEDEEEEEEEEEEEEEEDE
UniProt O43390: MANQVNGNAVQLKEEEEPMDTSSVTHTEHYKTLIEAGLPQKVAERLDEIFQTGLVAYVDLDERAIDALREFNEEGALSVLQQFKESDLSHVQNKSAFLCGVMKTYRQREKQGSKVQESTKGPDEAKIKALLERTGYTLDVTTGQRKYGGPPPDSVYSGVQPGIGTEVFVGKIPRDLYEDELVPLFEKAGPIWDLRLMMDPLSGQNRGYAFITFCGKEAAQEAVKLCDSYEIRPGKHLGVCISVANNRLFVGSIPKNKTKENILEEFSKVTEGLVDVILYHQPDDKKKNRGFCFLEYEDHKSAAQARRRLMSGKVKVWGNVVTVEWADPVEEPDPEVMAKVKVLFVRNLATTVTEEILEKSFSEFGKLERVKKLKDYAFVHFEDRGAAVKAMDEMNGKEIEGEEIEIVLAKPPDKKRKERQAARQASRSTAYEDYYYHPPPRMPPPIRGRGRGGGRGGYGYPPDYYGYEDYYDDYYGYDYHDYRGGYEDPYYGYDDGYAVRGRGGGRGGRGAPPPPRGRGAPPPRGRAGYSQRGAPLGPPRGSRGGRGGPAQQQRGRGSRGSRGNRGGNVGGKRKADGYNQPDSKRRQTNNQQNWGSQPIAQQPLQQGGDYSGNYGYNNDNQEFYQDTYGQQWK
UniProt P0DMV8, whole entry, looked up: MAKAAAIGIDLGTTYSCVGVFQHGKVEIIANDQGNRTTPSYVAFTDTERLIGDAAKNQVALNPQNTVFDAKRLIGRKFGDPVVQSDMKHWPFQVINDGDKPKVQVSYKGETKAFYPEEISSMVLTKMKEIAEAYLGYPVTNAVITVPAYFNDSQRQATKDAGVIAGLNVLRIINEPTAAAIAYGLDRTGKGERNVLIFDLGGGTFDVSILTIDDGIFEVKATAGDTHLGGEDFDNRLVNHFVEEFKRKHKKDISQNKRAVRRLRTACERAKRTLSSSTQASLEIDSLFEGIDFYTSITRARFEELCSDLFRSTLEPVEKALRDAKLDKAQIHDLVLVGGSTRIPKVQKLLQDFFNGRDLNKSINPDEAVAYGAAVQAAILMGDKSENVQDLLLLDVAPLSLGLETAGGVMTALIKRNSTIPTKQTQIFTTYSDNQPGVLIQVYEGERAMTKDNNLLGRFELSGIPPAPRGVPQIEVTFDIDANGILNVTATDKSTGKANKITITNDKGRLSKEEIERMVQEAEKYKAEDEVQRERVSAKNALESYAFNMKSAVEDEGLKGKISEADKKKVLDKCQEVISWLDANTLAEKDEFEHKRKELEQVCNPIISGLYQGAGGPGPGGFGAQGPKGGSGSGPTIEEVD

compound: O=C1NC(=O)C(c2cnc3ccccn23)=C1c1cn2c3c(cc(F)cc13)CN(C(=O)N1CCCCC1)CC2; assay: log2 fold change, soluble protein after heating vs DMSO (PISA); higher = thermal stabilisation; K562 lysate, 10 uM; active = over 0.2 and 3.5 SD of the protein, either way, in both replicates (recomputed)
How it was run: (§1)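 The values are log-two fold changes in thermal stability compared with solvent controls and come from duplicates. They were obtained by TMTpro 16plex LC-MS/MS, with channel sums equalised, on the supernatant after 21,000xg for 90 min. That supernatant came from crude K562 extract at 1 mg/mL protein treated with 10 μM compound for 30 min, heated for 3 min across 48°C-58°C, pooled and brought to 0.5% NP-40 at 4°C.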

log2 fold change, inactive:
HECTD1 (UniProt Q9ULT8) -0.042
HSP90AA4P (UniProt Q58FG1) -0.047
HPS1 (UniProt Q92902) 0.056
HSP90AB3P (UniProt Q58FF7) -0.006
HPS4 isoform 4 (UniProt Q9NQG7) 0.045
HSP90AB4P (UniProt Q58FF6) -0.119
HP1BP3 (UniProt Q5SSJ5) 0
HSD17B8 (UniProt Q92506) -0.019
HNRNPDL (UniProt O14979) 0.01
HS1BP3 (UniProt Q53T59) -0.027
HMGN4 (UniProt O00479) 0.067
HNRNPA1 (UniProt H0YH80) -0.031
HPF1 (UniProt Q9NWY4) 0.019
HHEX (UniProt Q03014) -0.113
HJURP (UniProt Q8NCD3) 0.003
HELZ2 (UniProt Q9BYK8) 0.055
HIP1 (UniProt O00291) -0.036
HNRNPK isoform 3 (UniProt P61978) 0.024
HSD17B11 (UniProt Q8NBQ5) -0.01
HMGN1 (UniProt P05114) -0.023
HOXB9 (UniProt P17482) -0.261
HMGCS1 (UniProt Q01581) 0.013
HNRNPH1 (UniProt P31943) -0.044
HMGB3 (UniProt O15347) -0.004
HNRNPR (UniProt O43390) 0.005
HEXA (UniProt P06865) -0.044
HMGB1 (UniProt P09429) 0.098
HEMGN (UniProt Q9BXL5) 0.008
HSPA1A (UniProt P0DMV8) -0.001
HPS5 (UniProt Q9UPZ3) 0.042

compound: c1cn2cc(-c3ccc4cn[nH]c4c3)nc(Nc3ccc(N4CCOCC4)cc3)c2n1 [entospletinib]; assay: as above
How it was run: as §1

log2 fold change, inactive:
HECTD1 (UniProt Q9ULT8) -0.051
HSP90AA4P (UniProt Q58FG1) 0.017
HPS1 (UniProt Q92902) -0.092
HSP90AB3P (UniProt Q58FF7) -0.012
HPS4 isoform 4 (UniProt Q9NQG7) 0.039
HSP90AB4P (UniProt Q58FF6) -0.011
HP1BP3 (UniProt Q5SSJ5) -0.027
HSD17B8 (UniProt Q92506) -0.027
HNRNPDL (UniProt O14979) 0.01
HS1BP3 (UniProt Q53T59) -0.033
HMGN4 (UniProt O00479) 0.163
HNRNPA1 (UniProt H0YH80) -0.004
HPF1 (UniProt Q9NWY4) -0.003
HHEX (UniProt Q03014) -0.072
HIP1 (UniProt O00291) -0.036
HNRNPK isoform 3 (UniProt P61978) 0.021
HSD17B11 (UniProt Q8NBQ5) -0.018
HMGN1 (UniProt P05114) 0.008
HOXB9 (UniProt P17482) -0.019
HMGCS1 (UniProt Q01581) -0.002
HNRNPH1 (UniProt P31943) 0.056
HMGB3 (UniProt O15347) -0.032
HNRNPR (UniProt O43390) -0.028
HEXA (UniProt P06865) 0.011
HMGB1 (UniProt P09429) -0.014
HEMGN (UniProt Q9BXL5) 0.016
HSPA1A (UniProt P0DMV8) -0.035
